Assay results as given in PMC12818745 (ACS Chemical Neuroscience, 2025).

Assay: in vitro
Settings: PAMPA, pH 7.4
Protocol: To assess BBB permeability, a parallel artificial membrane permeability assay (PAMPA)-BBB was performed, which predicts passive BBB permeability using a brain lipid porcine membrane.
The prediction of the brain penetration was evaluated using a PAMPA-BBB. […] Next, 100 μL of these stock solutions were added to a solution of 1400 μL of EtOH and 3500 μL of PBS at pH 7.4, to reach 30% of EtOH concentration in the experiment. These solutions were filtered, using Filter PDVF membrane units (diameter 30 mm, pore size 0.45 μm, from Symta). After this, the acceptor 96-well microplate (Multiscreen, catalogue no. MAMCS9610, from Millipore) was filled with 180 μL of PBS/EtOH (70/30). […] After 5 min, 180 μL of each compound solution was added. 1–2 mg of each selected compound was dissolved in 1500 μL of EtOH and 3500 μL of PBS at pH 7.4, filtered, and then added to the donor 96-well plate to determine their ability to cross the brain barrier. After this, the donor plate was carefully put on the acceptor plate to form a “sandwich” and incubated for 2.5 h at 25 °C. […] A 96-well plate UV reader (Thermoscientific, Multiskan spectrum) was used to determine the concentration of compounds and commercial drugs in the acceptor and donor wells. Every sample was analyzed at three to five wavelengths, in three wells, and in two independent runs. […]

## CC(C)NCC(O)COc1ccc(CC(N)=O)cc1 (stereo not shown) [Atenolol, reference compound]
  Papp at 2.5 h: 4.2 ± 1.9 nm/s
